Test results taken from patent US20220273732A1, “PROBIOTIC THERAPIES FOR SOCIAL DEFICIT AND STRESS RESPONSE” (California Institute of Technology, priority 2021, published 2022).
At least one compound was matched to its structure with a doubt left.

Tested on: mice
Assay: Reciprocal social interaction (RSI) test, social activity
Format: in vivo
Conditions: injection into the DG and BNST of SPF mice (corticosterone 65 μM, dexamethasone 20 mM)

In the case of `C[C@@H]1C[C@H]2[C@@H]3CCC4=CC(=O)C=C[C@]4(C)[C@@]3(F)[C@@H](O)C[C@]2(C)[C@@]1(O)C(=O)CO` [DEX, dexamethasone], the social activity is reported as “decreased”.
